Here are results for one molecule from publication PMC3203871.

The chains behind the UniProt entries cited, without tags or fusion partners. Residues count along the entry.
UniProt P22460, residues 518-613: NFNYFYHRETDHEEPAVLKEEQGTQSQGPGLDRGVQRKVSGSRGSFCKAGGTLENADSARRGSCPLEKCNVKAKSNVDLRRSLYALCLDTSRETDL

The assay deals with GST-K_(v1.5) C-terminus fusion protein (residues 518 to 613 of human K_(v1.5)) (human) (UniProt P22460). Kind of assay: pull-down; purified GST fusion (10–20 µg) as bait with 10 µl reticulocyte lysate holding the 35S-labelled prey in 300 µl 25 mM HEPES-Na, 5 mM MgCl2, 5 mM EGTA, 0.05% Tween-20, pH 7.0, 2 h at 25°C; Glutathione Sepharose beads, elution with reduced glutathione, SDS-PAGE and autoradiography; only the target purified.

No constants are given. Whether binding was seen depends on the method and setting. Binding seen in cells or lysates may run through a third protein. Some binding calls cover weakened binding; strength is not graded here.

B1: Four and a half LIM protein 1C (FHL1C) (protein, UniProt Q13642-3 1-194)
chain: MAEKFDCHYCRDPLQGKKYVQKDGHHCCLKCFDKFCANTCVECRKPIGADSKEVHYKNRFWHDTCFRCAKCLHPLANETFVAKDNKILCNKCTTREDSPKCKGCFKAIVAGDQNVEYKGTVWHKDCFTCSNCKQVIGTGSFFPKGEDFYCVTCHETKFAKHCVKCNKGLVKAPVWWPMKDNPGTTTASTAKNAP
modifications: 35S-methionine (radiolabelled)
Turning to B1, the binding result is given as “binds”.
